Oligonucleotides screened, 5′ to 3′:
SAM-II: SAM-II riboswitch RNA pseudoknot, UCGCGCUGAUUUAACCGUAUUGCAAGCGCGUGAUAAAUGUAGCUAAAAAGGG. About 200 hits among about 21,000 compounds.
TPP: TPP riboswitch RNA three-way junction, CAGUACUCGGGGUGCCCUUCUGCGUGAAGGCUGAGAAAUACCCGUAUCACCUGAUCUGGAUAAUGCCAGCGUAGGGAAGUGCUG. About 160 hits among about 24,000 compounds.
PreQ1: PreQ1 riboswitch RNA pseudoknot, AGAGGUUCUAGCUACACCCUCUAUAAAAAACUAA. From B. subtilis. About 170 hits among about 24,000 compounds.

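Each compound is printed as two spots on a slide made to bind it covalently, so it has no test concentration; the read-out is fluorescence of the bound, labelled oligonucleotide. The data file lists only calls. An earlier report of the laboratory on the PreQ1, TPP and SAM-II riboswitches (doi:10.1038/s41467-019-09493-3) used 1 µM RNA for 2 h and required a mean Z-score above 3 (spot signal-to-noise against the whole library), a score well above that on a control array, and duplicate spots agreeing (coefficient of variation under 100); it then also set aside compounds that hit other targets, which this list keeps. The cut-offs behind this list may differ. These are primary screening calls, not affinities; a compound without a hit may have attached poorly or may still bind in solution.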
Key: hit = hit, no hit = tested without a hit.
The compounds are a random part of those screened.
A target missing from an entry has no call listed here.
A dash means that no call is listed here.

* CSc1ncc(Nc2nc(C)c(-c3ccccc3)s2)cn1 : TPP: no hit; PreQ1: no hit
* O=C(N[C@@H]1CCN(Cc2ccc3nsnc3c2)C[C@H]1O)c1cnccn1 : SAM-II: no hit; TPP: no hit; PreQ1: no hit
* CCc1nnc2c(Nc3ccccc3OC)nc3ccccc3n12 : SAM-II: no hit; TPP: no hit; PreQ1: no hit
* CCC(O)Cn1ncnc1CCc1nc2ccccc2nc1O (centres unmarked) : SAM-II: no hit; TPP: no hit; PreQ1: no hit
* Cc1cc(Cl)ccc1OCc1nc(-c2nonc2N)no1 : SAM-II: no hit; TPP: no hit; PreQ1: no hit
* C[C@H]1CC2C3CCC4=CC(=O)C=C[C@]4(C)[C@@]3(F)[C@@H](O)C[C@]2(C)[C@@]1(O)C(=O)CO (some centres unmarked) : SAM-II: no hit; TPP: no hit; PreQ1: no hit
* CCCc1[nH]nc2c1C(c1ccccc1)C(C#N)=C(N)O2 (centres unmarked) : SAM-II: no hit; TPP: no hit; PreQ1: no hit
* CN(C(=O)c1ccc(CNc2c(N3CCCC3)c(=O)c2=O)cc1)C1CCCCC1 : TPP: no hit; PreQ1: no hit
* CCCCNc1cc(CCC)nc2nc(-c3cccnc3)nn12 : TPP: no hit; PreQ1: no hit
* COc1ccccc1C1C(C#N)=C(N)OC2=C1S(=O)(=O)N(C)c1ccccc12 (centres unmarked) : TPP: no hit; PreQ1: no hit
* COCc1cc(C)nc2sc(-c3ccc(C#N)cc3)c(N)c12 : SAM-II: no hit; TPP: no hit; PreQ1: no hit
* O=C(C1=C(NCCO)c2ccccc2S1(=O)=O)N1CCOCC1 : TPP: no hit; PreQ1: no hit
* FC(F)(F)COc1nc(N2CCNCC2)nc(N(c2ccccc2)c2ccccc2)n1 : SAM-II: no hit; TPP: no hit; PreQ1: no hit
* NCCn1cc(C(=O)N2CCC[C@H]2C(=O)N2CCCCC2)nn1 : SAM-II: no hit; TPP: no hit; PreQ1: no hit
* OCCCc1nc2n(n1)C(c1ccc(Cl)cc1)C=C(c1ccccc1)N2 (centres unmarked) : SAM-II: no hit; TPP: no hit; PreQ1: no hit
* NC(=O)C1=C(NCc2ccco2)c2ccccc2S1(=O)=O : TPP: no hit; PreQ1: no hit
* O=C(Nc1cccnc1)N1CCC(Cc2cccc(Oc3ccc(C(F)(F)F)cn3)c2)CC1 : SAM-II: no hit; TPP: no hit; PreQ1: no hit
* O=c1nc2onnc2c(/C=N\O)[nH]1 : SAM-II: no hit; TPP: no hit; PreQ1: no hit
* Cc1cc(N2CCN(S(=O)(=O)c3cccc(Cl)c3)CC2)nc(NC2CCCCC2)n1 : TPP: no hit; PreQ1: no hit
* O=C(O)Cc1ccc(CN2CCC3(CC2)OCCCC3O)cc1 (centres unmarked) : SAM-II: no hit; TPP: no hit; PreQ1: no hit
* Nc1nc(F)nc2c1ncn2[C@@H]1O[C@H](CO)[C@@H](O)[C@@H]1O : SAM-II: no hit; TPP: no hit; PreQ1: no hit
* COc1ccc(-c2nn3c(NCc4ccccc4)cc(C)nc3c2C)cc1OC : TPP: no hit; PreQ1: no hit
* C=CCOc1ccc(-n2ccnc2)cc1CO : SAM-II: no hit; TPP: no hit; PreQ1: no hit
* COc1ncc(-c2cc(Cl)c3c(c2)CC(CN)O3)c(OC)n1 (centres unmarked) : SAM-II: no hit; TPP: no hit; PreQ1: no hit
* CC(=O)N1CCN(C(=O)c2cnc(-c3cccnc3)nc2)CC(O)C1 (centres unmarked) : SAM-II: no hit; TPP: no hit; PreQ1: no hit
* Cn1c(=O)n(C)c2cc(CNCc3ccccn3)ccc21 : TPP: no hit; PreQ1: no hit
* N#CC1=C(N)Oc2[nH]nc(C(F)(F)F)c2C1c1ccccc1 (centres unmarked) : SAM-II: no hit; TPP: no hit; PreQ1: no hit
* O=S(=O)(c1ccc(F)cc1)c1nc(-c2ccc(F)cc2)oc1NCCN1CCOCC1 : TPP: no hit; PreQ1: no hit
* COc1ccccc1NC(CNS(=O)(=O)c1ccc(C)cc1)c1ccccc1 (centres unmarked) : TPP: no hit; PreQ1: no hit
* CCCc1ccc(-c2ccc(C(=O)N3CCCC(O)(CO)CC3)cc2)cc1 (centres unmarked) : SAM-II: no hit; TPP: no hit; PreQ1: no hit

The last 2 entries again:

SMILES,SAM-II,TPP,PreQ1
COc1ccccc1NC(CNS(=O)(=O)c1ccc(C)cc1)c1ccccc1 (centres unmarked),-,no hit,no hit
CCCc1ccc(-c2ccc(C(=O)N3CCCC(O)(CO)CC3)cc2)cc1 (centres unmarked),no hit,no hit,no hit

Calls as published in the ROBIN set (doi:10.1002/anie.202211358).